# Laboratory results taken from the supplement of paper PMC10849652.
# The chains behind the UniProt entries cited, without tags or fusion partners. Where a name states a change or a piece, a line headed by the entry shows the natural chain unless it says otherwise.
# UniProt Q7Z6E9: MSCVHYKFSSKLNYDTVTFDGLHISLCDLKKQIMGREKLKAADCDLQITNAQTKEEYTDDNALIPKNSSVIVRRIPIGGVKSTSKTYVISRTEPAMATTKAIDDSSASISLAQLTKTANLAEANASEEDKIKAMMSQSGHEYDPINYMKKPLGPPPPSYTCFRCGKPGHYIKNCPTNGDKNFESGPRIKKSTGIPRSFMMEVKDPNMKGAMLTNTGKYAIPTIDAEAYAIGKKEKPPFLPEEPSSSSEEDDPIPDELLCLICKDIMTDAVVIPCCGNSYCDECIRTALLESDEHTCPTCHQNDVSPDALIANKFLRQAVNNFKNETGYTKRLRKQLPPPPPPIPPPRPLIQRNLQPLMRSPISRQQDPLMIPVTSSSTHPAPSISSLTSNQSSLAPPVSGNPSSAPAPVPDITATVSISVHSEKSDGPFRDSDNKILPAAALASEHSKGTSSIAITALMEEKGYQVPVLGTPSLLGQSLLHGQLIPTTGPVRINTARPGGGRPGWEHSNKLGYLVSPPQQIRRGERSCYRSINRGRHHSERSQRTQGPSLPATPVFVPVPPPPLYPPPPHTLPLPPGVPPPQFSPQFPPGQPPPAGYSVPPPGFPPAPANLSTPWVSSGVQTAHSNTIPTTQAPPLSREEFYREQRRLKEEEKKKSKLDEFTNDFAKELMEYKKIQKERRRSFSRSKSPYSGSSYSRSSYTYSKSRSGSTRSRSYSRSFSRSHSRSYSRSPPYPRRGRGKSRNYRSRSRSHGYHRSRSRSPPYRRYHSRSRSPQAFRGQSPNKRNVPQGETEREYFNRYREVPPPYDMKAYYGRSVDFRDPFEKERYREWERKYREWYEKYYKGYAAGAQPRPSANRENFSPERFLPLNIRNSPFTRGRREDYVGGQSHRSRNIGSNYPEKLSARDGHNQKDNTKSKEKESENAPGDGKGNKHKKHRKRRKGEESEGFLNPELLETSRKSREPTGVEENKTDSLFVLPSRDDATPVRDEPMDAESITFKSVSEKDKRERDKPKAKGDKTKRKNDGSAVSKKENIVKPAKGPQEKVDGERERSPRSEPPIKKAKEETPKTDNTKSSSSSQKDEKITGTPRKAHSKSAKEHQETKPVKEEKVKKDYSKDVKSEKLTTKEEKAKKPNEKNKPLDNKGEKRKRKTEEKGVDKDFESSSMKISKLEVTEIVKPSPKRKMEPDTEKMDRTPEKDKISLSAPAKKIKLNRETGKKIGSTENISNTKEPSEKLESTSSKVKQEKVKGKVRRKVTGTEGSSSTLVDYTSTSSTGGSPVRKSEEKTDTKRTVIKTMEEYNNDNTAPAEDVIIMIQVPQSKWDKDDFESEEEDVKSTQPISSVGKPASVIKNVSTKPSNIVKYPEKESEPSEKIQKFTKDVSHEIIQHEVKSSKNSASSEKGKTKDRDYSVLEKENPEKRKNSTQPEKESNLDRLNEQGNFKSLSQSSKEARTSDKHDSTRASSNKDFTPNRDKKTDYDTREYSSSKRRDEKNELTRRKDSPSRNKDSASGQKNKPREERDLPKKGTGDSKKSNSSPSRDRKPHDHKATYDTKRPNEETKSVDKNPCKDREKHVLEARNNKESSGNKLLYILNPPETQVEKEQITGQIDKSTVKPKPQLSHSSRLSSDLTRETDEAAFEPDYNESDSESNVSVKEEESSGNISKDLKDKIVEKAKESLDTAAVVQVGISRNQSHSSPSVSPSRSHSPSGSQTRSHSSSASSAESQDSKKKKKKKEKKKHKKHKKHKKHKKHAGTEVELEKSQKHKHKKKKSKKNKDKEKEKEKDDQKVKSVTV
# UniProt Q6JBY9, whole entry, looked up: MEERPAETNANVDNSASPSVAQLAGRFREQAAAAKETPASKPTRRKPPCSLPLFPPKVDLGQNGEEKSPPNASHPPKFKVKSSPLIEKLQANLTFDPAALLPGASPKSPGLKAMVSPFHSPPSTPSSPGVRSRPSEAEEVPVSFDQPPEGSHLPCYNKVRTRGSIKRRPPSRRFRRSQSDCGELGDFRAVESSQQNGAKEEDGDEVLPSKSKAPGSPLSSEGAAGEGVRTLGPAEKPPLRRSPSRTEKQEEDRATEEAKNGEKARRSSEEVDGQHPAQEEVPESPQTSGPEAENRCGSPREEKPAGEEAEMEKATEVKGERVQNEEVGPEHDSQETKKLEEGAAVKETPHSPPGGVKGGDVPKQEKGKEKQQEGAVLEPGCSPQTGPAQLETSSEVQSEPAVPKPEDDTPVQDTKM
# UniProt Q9NW64: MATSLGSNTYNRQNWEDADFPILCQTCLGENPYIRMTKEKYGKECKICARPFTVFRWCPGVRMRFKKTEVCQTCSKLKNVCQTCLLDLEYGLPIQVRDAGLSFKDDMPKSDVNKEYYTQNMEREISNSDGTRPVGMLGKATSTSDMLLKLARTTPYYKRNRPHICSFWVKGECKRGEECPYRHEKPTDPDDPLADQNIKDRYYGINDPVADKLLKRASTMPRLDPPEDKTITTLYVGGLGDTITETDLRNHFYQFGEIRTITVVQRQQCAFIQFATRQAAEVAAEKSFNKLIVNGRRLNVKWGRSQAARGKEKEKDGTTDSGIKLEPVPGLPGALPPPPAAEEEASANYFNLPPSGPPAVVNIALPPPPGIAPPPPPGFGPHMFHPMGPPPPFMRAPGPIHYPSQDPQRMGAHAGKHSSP
# UniProt Q9H1K0: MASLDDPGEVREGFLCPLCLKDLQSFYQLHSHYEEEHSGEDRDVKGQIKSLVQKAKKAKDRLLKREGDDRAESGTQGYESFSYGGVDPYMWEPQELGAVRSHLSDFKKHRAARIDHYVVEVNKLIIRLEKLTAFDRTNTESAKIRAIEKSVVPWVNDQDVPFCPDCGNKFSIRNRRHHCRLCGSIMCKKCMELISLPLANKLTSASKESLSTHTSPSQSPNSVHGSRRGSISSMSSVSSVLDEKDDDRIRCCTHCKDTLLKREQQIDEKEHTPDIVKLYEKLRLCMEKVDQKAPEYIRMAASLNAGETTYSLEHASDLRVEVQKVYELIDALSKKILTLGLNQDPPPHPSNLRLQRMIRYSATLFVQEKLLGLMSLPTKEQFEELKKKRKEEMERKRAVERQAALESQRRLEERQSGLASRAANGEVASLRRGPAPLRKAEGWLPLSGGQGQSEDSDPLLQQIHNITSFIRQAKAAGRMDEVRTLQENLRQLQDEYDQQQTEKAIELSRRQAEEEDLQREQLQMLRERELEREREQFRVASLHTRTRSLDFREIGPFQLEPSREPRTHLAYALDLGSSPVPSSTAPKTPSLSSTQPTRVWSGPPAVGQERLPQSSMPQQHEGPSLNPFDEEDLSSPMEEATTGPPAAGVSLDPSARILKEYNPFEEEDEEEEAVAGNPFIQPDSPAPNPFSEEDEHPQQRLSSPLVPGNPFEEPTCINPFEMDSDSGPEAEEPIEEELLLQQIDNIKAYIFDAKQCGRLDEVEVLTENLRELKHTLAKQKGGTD
# UniProt P28749: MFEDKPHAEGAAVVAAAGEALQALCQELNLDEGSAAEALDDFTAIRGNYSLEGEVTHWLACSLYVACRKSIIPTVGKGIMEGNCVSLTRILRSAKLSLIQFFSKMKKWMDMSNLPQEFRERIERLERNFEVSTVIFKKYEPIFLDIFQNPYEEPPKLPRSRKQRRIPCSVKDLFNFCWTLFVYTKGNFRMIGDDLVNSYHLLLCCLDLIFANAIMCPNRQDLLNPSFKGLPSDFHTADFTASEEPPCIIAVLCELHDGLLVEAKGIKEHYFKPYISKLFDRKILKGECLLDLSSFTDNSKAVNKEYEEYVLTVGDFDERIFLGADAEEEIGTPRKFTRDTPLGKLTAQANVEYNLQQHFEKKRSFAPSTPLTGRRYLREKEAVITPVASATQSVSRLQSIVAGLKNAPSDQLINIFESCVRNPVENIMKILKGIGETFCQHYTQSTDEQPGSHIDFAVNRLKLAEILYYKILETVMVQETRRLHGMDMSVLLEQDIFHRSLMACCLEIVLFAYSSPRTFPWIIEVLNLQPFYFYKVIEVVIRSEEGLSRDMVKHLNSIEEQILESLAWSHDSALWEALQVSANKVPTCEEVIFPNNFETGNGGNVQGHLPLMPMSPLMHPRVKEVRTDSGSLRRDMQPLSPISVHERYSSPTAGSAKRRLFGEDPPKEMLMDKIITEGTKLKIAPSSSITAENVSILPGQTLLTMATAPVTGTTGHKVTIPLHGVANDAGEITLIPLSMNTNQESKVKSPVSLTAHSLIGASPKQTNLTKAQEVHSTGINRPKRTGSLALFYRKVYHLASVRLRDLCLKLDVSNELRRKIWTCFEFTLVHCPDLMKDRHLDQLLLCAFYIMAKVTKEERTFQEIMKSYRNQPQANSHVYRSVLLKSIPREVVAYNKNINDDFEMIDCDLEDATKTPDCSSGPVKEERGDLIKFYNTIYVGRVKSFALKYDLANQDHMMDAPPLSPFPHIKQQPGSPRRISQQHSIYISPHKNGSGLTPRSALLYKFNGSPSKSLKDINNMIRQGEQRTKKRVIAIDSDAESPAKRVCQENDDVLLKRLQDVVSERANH
# UniProt P48382: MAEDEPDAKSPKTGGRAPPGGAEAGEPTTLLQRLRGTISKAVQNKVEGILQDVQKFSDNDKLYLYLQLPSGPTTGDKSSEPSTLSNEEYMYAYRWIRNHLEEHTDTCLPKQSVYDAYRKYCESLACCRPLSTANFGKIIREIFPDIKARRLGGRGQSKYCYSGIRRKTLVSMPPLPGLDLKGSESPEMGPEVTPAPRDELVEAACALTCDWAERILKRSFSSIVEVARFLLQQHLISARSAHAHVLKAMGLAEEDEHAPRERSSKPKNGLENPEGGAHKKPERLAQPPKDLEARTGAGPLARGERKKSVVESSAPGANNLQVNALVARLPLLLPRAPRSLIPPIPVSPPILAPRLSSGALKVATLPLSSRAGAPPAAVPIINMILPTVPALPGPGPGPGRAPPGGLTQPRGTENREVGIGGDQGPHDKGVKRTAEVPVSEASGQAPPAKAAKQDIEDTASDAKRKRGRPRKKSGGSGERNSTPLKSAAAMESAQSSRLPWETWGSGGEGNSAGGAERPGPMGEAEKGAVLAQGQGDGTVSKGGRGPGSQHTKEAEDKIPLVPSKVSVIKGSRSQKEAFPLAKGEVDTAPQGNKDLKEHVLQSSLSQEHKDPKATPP
# UniProt Q02094: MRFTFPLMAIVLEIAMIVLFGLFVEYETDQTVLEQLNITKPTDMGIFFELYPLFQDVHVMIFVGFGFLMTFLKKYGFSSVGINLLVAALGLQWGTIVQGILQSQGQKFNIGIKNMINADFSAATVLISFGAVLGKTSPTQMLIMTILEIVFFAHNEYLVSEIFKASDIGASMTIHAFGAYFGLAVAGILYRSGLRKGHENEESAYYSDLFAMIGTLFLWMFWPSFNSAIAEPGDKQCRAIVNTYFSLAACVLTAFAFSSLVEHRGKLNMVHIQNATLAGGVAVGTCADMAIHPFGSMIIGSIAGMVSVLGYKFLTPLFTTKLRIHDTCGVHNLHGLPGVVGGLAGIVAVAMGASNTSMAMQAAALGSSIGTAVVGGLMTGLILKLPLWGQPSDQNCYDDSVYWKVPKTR
# UniProt Q14498: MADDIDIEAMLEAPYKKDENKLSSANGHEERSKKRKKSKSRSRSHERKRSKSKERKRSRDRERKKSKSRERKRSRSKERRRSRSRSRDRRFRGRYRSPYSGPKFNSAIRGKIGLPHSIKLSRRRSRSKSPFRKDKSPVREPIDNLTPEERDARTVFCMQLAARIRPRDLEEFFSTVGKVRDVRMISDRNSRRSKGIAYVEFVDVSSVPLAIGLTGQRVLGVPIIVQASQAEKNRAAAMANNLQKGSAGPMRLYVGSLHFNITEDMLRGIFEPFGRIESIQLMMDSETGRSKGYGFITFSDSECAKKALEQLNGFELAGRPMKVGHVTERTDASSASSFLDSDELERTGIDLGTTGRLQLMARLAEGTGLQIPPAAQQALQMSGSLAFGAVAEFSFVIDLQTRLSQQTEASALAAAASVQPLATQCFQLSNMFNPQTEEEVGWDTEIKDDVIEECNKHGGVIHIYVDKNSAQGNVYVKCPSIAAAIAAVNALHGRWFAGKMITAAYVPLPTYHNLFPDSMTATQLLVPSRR
# UniProt Q96D15: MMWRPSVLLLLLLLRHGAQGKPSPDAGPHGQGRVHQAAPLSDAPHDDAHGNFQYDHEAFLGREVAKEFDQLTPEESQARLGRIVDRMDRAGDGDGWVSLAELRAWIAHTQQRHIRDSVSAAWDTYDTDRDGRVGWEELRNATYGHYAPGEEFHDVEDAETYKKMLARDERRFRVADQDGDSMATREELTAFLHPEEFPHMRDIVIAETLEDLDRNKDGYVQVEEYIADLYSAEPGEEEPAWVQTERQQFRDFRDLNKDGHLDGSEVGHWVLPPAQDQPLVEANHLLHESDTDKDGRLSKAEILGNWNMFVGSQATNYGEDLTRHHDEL
# The list shows a part of the results.
# What was measured:
# Assay in all cases: log2 fold change, soluble protein after heating vs DMSO (PISA); higher = thermal stabilisation; K562 lysate, 10 uM; active = over 0.2 and 3.5 SD of the protein, either way, in both replicates (recomputed)
# nilotinib = compound: Cc1cn(-c2cc(NC(=O)c3ccc(C)c(Nc4nccc(-c5cccnc5)n4)c3)cc(C(F)(F)F)c2)cn1 [nilotinib]
# Procedure, shortened: (§1)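 Log-two fold change in thermal stability relative to solvent controls is reported from duplicates. For each sample, crude K562 extract from dounce-homogenised pellets in PBS pH 7.4 with 1 mM MgCl2, at 1 mg/mL protein, was treated with 10 μM compound for 30 min. Aliquots heated for 3 min across 48°C-58°C were pooled, brought to 0.5% NP-40 at 4°C and cleared at 21,000xg for 90 min. The supernatant was quantified by TMTpro 16plex LC-MS/MS with channel sums equalised.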
# [1] = compound: Cc1nc(Nc2n[nH]c3c2CN(C(=O)N[C@H](CN(C)C)c2ccccc2)C3(C)C)c2sccc2n1
# Procedure, shortened: as §1
# dasatinib = compound: Cc1nc(Nc2ncc(C(=O)Nc3c(C)cccc3Cl)s2)cc(N2CCN(CCO)CC2)n1 [dasatinib]
# Procedure, shortened: as §1
# [2] = compound: Cc1ncc(-c2ccnc(Nc3ccc(S(C)(=O)=O)cc3)n2)n1C(C)C
# Procedure, shortened: as §1
# [3] = compound: Cn1cc(-c2ccc3c(c2)CCN3C(=O)Cc2cccc(C(F)(F)F)c2)c2c(N)ncnc21
# Procedure, shortened: as §1
# quisinostat = compound: Cn1cc(CNCC2CCN(c3ncc(C(=O)NO)cn3)CC2)c2ccccc21 [quisinostat]
# Procedure, shortened: as §1
# tipifarnib = compound: Cn1cncc1[C@@](N)(c1ccc(Cl)cc1)c1ccc2c(c1)c(-c1cccc(Cl)c1)cc(=O)n2C [tipifarnib]
# Procedure, shortened: as §1
# [4] = compound: NC(=O)Nc1cc(-c2cccc(F)c2)sc1C(=O)N[C@H]1CCCNC1
# Procedure, shortened: as §1
# [5] = compound: NC(=O)c1cnc(N[C@@H]2CCCC[C@@H]2N)nc1Nc1cccc(-n2nccn2)c1
# Procedure, shortened: as §1
# [6] = compound: NC1(c2ccc(-c3nc4ccn5c(=O)[nH]nc5c4cc3-c3ccccc3)cc2)CCC1
# Procedure, shortened: as §1
# [7] = compound: NCC(=O)Nc1ccc(-n2nc(C(F)(F)F)cc2-c2ccc3c(ccc4ccccc43)c2)cc1
# Procedure, shortened: as §1
# vorinostat = compound: O=C(CCCCCCC(=O)Nc1ccccc1)NO [vorinostat]
# Procedure, shortened: as §1
# silmitasertib = compound: O=C(O)c1ccc2c(c1)nc(Nc1cccc(Cl)c1)c1ccncc12 [silmitasertib]
# Procedure, shortened: as §1
# [8] = compound: O=C1NC(=O)C(c2cnc3ccccn23)=C1c1cn2c3c(cc(F)cc13)CN(C(=O)N1CCCCC1)CC2
# Procedure, shortened: as §1
# entospletinib = compound: c1cn2cc(-c3ccc4cn[nH]c4c3)nc(Nc3ccc(N4CCOCC4)cc3)c2n1 [entospletinib]
# Procedure, shortened: as §1
Target,log2 fold change (nilotinib),log2 fold change [1],log2 fold change (dasatinib),log2 fold change [2],log2 fold change [3],log2 fold change (quisinostat),log2 fold change (tipifarnib),log2 fold change [4],log2 fold change [5],log2 fold change [6],log2 fold change [7],log2 fold change (vorinostat),log2 fold change (silmitasertib),log2 fold change [8],log2 fold change (entospletinib)
RHEB (UniProt Q15382),inactive: 0.004,inactive: -0.015,inactive: -0.046,inactive: -0.05,inactive: 0.04,inactive: 0,inactive: 0.003,inactive: 0.003,inactive: 0.02,inactive: 0.022,inactive: -0.042,inactive: -0.089,inactive: 0.058,inactive: -0.031,inactive: 0.004
RBBP6 (UniProt Q7Z6E9),inactive: -0.044,inactive: 0.031,inactive: -0.009,inactive: 0.003,inactive: -0.043,inactive: -0.022,inactive: -0.017,inactive: -0.003,inactive: 0.027,inactive: 0.04,inactive: -0.016,inactive: -0.088,inactive: -0.039,inactive: 0.02,inactive: -0.011
RBM6 (UniProt P78332),inactive: 0.018,inactive: -0.031,inactive: -0.06,inactive: 0.135,inactive: 0.125,inactive: -0.002,inactive: -0.024,inactive: 0.007,inactive: -0.018,inactive: -0.043,inactive: 0.054,inactive: -0.061,inactive: -0.034,inactive: 0.02,inactive: -0.027
RASA2 (UniProt Q15283),inactive: -0.049,inactive: -0.037,inactive: -0.015,inactive: 0.063,inactive: 0,inactive: -0.071,inactive: 0.018,inactive: -0.011,inactive: 0.042,inactive: -0.031,inactive: -0.007,active: -0.275,inactive: 0.021,inactive: -0.006,inactive: 0.023
REL isoform 2 (UniProt Q04864),inactive: 0.009,inactive: -0.032,inactive: -0.015,inactive: -0.041,inactive: 0.056,inactive: -0.005,inactive: 0.014,inactive: 0.005,inactive: -0.009,inactive: -0.017,inactive: -0.052,active: -0.351,inactive: 0.07,inactive: -0.004,inactive: 0.019
RCC1L (UniProt Q96I51),inactive: -0.055,inactive: 0.02,inactive: 0.028,inactive: -0.034,inactive: 0.091,inactive: 0.008,inactive: 0.04,inactive: -0.012,inactive: 0.031,inactive: 0.004,inactive: 0.015,inactive: 0.058,inactive: 0.009,inactive: -0.027,inactive: 0.014
RCSD1 (UniProt Q6JBY9),inactive: -0.037,inactive: 0,inactive: -0.009,inactive: 0.019,inactive: -0.015,inactive: -0.059,inactive: -0.014,inactive: -0.003,inactive: 0,inactive: 0.027,inactive: 0.023,inactive: 0.062,inactive: 0.019,inactive: 0.012,inactive: 0
RBM22 (UniProt Q9NW64),inactive: -0.045,inactive: 0.024,inactive: -0.072,inactive: -0.006,inactive: 0.057,inactive: -0.022,inactive: -0.036,inactive: -0.027,inactive: 0.01,inactive: 0.033,inactive: 0.024,active: -0.23,inactive: 0,inactive: -0.053,inactive: -0.023
RBSN (UniProt Q9H1K0),inactive: -0.047,inactive: 0.057,inactive: -0.106,inactive: 0.034,inactive: -0.004,inactive: -0.04,inactive: -0.036,inactive: 0.05,inactive: 0.039,inactive: 0.029,inactive: 0.039,inactive: 0.035,inactive: -0.032,inactive: -0.026,inactive: -0.088
RBL1 (UniProt P28749),inactive: -0.084,inactive: -0.067,inactive: 0.048,inactive: 0.009,inactive: 0.021,inactive: -0.053,inactive: 0.212,inactive: 0.027,inactive: -0.007,inactive: 0.021,inactive: -0.051,inactive: -0.221,inactive: -0.027,inactive: 0.038,inactive: -0.092
RFX5 (UniProt P48382),inactive: -0.029,inactive: -0.043,inactive: -0.084,inactive: -0.023,inactive: -0.007,inactive: -0.016,inactive: -0.008,inactive: 0.019,inactive: -0.004,inactive: 0.016,inactive: 0.057,inactive: -0.171,inactive: 0.034,inactive: 0.005,inactive: 0.08
RELCH isoform 2 (UniProt Q9P260),inactive: 0.014,inactive: -0.038,inactive: -0.1,inactive: -0.011,inactive: -0.007,inactive: -0.004,inactive: -0.031,inactive: -0.007,inactive: 0.02,inactive: -0.001,inactive: 0.098,inactive: -0.094,inactive: 0.039,inactive: -0.021,inactive: -0.007
RHAG (UniProt Q02094),inactive: 0.041,inactive: -0.013,inactive: -0.029,inactive: -0.016,inactive: -0.06,inactive: -0.142,inactive: 0.011,inactive: 0.011,inactive: -0.024,inactive: -0.002,inactive: 0.031,inactive: -0.026,inactive: 0.153,inactive: 0.015,inactive: -0.03
RBM12 (UniProt Q9NTZ6),inactive: -0.019,inactive: 0,inactive: -0.035,inactive: -0.023,inactive: -0.007,inactive: -0.002,inactive: -0.033,inactive: 0.002,inactive: 0.006,inactive: 0.02,inactive: -0.01,inactive: 0.02,inactive: -0.012,inactive: 0.014,inactive: -0.024
REV3L (UniProt O60673),inactive: -0.126,inactive: -0.013,inactive: -0.133,inactive: 0.026,inactive: -0.039,inactive: -0.422,inactive: -0.251,inactive: -0.042,inactive: 0.14,inactive: -0.064,inactive: 0.024,inactive: -0.135,inactive: -0.037,inactive: 0.064,inactive: -0.026
RBM39 (UniProt Q14498),inactive: 0,inactive: 0.009,inactive: -0.027,inactive: 0.008,inactive: -0.007,inactive: 0.013,inactive: -0.049,inactive: -0.115,inactive: -0.034,inactive: 0.039,inactive: 0.046,inactive: 0,inactive: -0.076,inactive: -0.009,inactive: -0.047
RETREG3 (UniProt Q86VR2),inactive: -0.006,inactive: -0.015,inactive: -0.016,inactive: 0.02,inactive: 0.039,inactive: -0.147,inactive: -0.097,inactive: 0.044,inactive: -0.016,inactive: -0.081,inactive: -0.015,inactive: 0.039,inactive: 0.014,inactive: 0.023,inactive: 0.004
RCN3 (UniProt Q96D15),inactive: 0.035,inactive: 0.073,inactive: -0.064,inactive: -0.021,inactive: 0.114,inactive: 0.091,inactive: -0.043,inactive: -0.027,inactive: 0.042,inactive: -0.066,inactive: -0.038,inactive: 0.16,inactive: 0.045,inactive: 0.049,inactive: 0.025
RBM26 isoform 2 (UniProt Q5T8P6),inactive: 0.02,inactive: 0.008,inactive: 0,inactive: -0.01,inactive: 0.026,inactive: -0.011,inactive: 0.029,inactive: -0.006,inactive: 0.016,inactive: 0.054,inactive: -0.01,inactive: -0.212,inactive: -0.013,inactive: -0.001,inactive: 0.007

# Another view of part of the listing above.
Target | log2 fold change (nilotinib) | log2 fold change [1] | log2 fold change (dasatinib) | log2 fold change [2] | log2 fold change [3] | log2 fold change (quisinostat) | log2 fold change (tipifarnib) | log2 fold change [4] | log2 fold change [5] | log2 fold change [6] | log2 fold change [7] | log2 fold change (vorinostat) | log2 fold change (silmitasertib) | log2 fold change [8] | log2 fold change (entospletinib)
RASA2 (UniProt Q15283) | inactive: -0.049 | inactive: -0.037 | inactive: -0.015 | inactive: 0.063 | inactive: 0 | inactive: -0.071 | inactive: 0.018 | inactive: -0.011 | inactive: 0.042 | inactive: -0.031 | inactive: -0.007 | active: -0.275 | inactive: 0.021 | inactive: -0.006 | inactive: 0.023
RBM12 (UniProt Q9NTZ6) | inactive: -0.019 | inactive: 0 | inactive: -0.035 | inactive: -0.023 | inactive: -0.007 | inactive: -0.002 | inactive: -0.033 | inactive: 0.002 | inactive: 0.006 | inactive: 0.02 | inactive: -0.01 | inactive: 0.02 | inactive: -0.012 | inactive: 0.014 | inactive: -0.024
